Consider one substance from PMC9066070, “RGI‐GOLVEN signaling promotes cell surface immune receptor abundance to regulate plant immunity” (EMBO Reports, 2022).

Amino acid sequences for entries named in this document (tags omitted). Residues count along the entry.
UniProt Q9FL28, residues 24-1173: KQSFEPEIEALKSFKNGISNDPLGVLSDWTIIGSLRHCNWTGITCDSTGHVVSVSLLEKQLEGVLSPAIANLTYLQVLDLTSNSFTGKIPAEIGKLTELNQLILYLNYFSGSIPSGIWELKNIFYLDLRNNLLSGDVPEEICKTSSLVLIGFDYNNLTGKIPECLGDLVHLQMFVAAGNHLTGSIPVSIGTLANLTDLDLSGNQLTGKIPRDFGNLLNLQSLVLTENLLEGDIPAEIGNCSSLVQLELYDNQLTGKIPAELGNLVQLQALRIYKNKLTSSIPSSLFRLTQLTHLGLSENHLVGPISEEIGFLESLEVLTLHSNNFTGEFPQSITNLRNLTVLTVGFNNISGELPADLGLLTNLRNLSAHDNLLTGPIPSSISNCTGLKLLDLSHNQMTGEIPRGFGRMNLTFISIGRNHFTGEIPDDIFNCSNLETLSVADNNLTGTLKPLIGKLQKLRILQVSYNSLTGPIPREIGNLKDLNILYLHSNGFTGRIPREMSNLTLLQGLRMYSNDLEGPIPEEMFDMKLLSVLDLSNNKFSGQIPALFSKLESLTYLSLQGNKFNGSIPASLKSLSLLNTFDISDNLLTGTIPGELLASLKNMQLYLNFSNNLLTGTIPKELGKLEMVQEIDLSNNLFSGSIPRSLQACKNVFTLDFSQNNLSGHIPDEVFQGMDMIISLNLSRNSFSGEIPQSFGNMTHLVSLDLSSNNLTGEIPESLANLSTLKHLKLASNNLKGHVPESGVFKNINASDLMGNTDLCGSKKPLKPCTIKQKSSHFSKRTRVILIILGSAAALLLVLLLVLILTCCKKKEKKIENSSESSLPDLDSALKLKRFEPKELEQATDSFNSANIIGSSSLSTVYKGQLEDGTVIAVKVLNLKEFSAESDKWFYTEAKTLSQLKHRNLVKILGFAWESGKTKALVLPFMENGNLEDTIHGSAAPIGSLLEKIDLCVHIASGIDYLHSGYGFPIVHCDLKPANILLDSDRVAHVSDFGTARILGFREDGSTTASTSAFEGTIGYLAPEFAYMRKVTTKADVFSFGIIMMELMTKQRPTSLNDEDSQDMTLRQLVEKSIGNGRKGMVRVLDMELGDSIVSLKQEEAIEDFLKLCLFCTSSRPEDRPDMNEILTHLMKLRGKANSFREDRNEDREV

These are yes or no findings as the source states them, for the method shown. Binding seen in cells or lysates may run through a third protein. Some binding calls cover weakened binding; strength is not graded here. Where a sequence is shown, tags or fusion partners need not be part of it.

For assay [1], the target named is T1, RGI3-GFP (Arabidopsis thaliana) (UniProt C0LGR3).
T1 sequence: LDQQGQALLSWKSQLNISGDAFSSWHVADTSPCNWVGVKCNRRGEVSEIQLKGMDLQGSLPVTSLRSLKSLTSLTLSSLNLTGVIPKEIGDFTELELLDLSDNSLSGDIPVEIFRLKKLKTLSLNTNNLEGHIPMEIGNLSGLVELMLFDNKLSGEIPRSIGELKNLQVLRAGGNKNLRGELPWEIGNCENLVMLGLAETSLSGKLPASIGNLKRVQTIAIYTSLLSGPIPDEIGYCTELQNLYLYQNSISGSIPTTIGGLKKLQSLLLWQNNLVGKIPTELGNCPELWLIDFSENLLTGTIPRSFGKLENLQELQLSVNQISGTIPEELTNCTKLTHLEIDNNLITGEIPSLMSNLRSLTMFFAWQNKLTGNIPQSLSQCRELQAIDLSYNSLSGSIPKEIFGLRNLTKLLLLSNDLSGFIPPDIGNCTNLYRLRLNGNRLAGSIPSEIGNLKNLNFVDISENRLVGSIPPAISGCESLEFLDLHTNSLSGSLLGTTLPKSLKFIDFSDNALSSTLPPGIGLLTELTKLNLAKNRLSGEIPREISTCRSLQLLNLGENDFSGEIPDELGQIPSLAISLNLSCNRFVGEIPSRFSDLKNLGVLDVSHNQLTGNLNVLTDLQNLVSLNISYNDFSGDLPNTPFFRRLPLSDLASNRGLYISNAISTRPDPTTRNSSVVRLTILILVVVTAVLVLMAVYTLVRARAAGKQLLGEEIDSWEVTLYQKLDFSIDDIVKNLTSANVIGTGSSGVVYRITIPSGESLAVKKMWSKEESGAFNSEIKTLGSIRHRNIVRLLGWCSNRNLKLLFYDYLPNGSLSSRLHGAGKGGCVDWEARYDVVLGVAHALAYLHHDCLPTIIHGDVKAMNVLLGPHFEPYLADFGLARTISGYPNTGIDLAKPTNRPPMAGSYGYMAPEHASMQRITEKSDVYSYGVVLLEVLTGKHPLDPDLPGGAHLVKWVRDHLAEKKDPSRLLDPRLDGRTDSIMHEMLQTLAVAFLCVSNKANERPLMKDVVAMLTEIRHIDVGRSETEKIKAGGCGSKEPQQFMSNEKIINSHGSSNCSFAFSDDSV
In words: co-IP.

Assay [2] addresses T2, CLV1-GFP (Arabidopsis thaliana) (UniProt Q9SYQ8).
T2 sequence: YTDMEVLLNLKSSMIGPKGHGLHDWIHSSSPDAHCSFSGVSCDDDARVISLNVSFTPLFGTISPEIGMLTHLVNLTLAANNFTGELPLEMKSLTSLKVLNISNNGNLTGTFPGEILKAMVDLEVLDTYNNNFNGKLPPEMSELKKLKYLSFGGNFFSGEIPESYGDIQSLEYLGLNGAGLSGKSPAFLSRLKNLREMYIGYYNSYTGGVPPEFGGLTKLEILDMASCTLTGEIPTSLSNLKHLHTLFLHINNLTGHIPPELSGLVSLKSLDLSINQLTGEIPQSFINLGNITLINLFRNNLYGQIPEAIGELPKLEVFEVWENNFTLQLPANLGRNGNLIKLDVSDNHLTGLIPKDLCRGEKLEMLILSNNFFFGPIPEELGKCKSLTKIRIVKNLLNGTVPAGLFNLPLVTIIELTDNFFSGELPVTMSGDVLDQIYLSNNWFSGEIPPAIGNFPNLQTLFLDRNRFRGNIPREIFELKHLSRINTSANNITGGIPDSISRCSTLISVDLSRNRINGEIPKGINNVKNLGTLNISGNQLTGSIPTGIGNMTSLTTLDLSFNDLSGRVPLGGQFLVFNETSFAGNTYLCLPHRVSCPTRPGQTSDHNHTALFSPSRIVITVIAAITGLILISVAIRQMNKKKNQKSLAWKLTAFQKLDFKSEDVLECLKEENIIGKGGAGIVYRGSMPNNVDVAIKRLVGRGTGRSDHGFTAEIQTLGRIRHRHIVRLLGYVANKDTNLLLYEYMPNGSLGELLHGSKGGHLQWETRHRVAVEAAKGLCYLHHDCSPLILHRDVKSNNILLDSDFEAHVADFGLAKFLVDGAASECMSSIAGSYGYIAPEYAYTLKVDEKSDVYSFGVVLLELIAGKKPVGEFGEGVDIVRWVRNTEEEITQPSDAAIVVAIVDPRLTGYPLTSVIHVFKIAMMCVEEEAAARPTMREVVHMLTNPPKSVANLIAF
In words: co-IP; FLS2-HA co-expressed with CLV1-GFP or RGI3-GFP in N. benthamiana, no ligand named; IP with GFP-TRAP beads, blots with α-GFP and α-HA.

For assay [3], the target named is T1, RGI3-GFP (Arabidopsis thaliana). The assay is described as above.

As to “FLS2-HA (from UniProt Q9FL28 24-1173) (receptor)”, the results for the binding entry in assay [1], in assay [2] and in assay [3] were “binds”, “no binding” and “binds weakly”, respectively.
